According to paper PMC4339890 (Nature Communications, 2015):
These are yes or no findings as the source states them, for the method shown. Binding seen in cells or lysates may run through a third protein. Here binding means that the protein was enriched with, or labelled near, the bait; the list need not be complete. Sequences can lack the tags named with a protein.

By UniProt entry, the sequences of proteins in these tests, tags left out.
UniProt Q9BUH6: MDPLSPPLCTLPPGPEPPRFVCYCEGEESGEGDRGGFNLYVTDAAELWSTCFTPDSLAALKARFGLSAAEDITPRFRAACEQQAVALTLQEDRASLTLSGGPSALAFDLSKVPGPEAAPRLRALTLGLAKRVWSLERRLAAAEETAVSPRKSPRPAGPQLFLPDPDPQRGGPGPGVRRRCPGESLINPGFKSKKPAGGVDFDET

Key:
[1] = biological target: T1, Flag-tagged DNA polymerase λ (human) (UniProt Q9UGP5)
T1 sequence: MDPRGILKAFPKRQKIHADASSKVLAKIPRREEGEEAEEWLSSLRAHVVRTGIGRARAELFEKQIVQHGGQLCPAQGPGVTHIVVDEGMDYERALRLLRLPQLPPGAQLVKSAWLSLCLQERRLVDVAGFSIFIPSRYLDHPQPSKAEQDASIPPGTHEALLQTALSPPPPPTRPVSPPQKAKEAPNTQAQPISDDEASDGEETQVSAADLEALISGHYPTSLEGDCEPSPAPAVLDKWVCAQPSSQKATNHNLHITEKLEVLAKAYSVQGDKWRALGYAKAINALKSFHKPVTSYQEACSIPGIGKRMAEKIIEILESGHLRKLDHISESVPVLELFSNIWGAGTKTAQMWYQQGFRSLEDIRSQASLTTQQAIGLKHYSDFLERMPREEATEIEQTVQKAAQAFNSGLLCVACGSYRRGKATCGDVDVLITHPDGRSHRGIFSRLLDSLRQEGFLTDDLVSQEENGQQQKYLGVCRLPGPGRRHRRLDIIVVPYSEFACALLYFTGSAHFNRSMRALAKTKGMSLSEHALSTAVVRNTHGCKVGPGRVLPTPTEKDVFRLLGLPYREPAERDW

[2] = biological target: T2, Flag-tagged APTX–polynucleotide kinase-phosphatase-like factor (human) (UniProt Q8IW19)
T2 sequence: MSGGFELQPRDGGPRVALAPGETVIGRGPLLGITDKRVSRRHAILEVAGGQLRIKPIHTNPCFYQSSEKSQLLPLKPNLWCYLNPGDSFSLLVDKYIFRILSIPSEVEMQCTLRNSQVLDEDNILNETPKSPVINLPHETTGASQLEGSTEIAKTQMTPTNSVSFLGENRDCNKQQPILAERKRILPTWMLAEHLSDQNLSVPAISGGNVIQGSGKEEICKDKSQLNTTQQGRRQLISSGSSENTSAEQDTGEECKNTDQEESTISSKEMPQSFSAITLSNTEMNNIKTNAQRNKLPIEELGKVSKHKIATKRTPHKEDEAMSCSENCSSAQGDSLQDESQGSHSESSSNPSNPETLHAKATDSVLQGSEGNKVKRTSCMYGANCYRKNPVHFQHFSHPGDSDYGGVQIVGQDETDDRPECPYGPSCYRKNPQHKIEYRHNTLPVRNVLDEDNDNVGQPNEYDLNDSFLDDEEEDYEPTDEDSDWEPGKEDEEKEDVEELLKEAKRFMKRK

binding [1]: binds | binding [2]: binds
Substance: PAXX (C9orf142), endogenous (from UniProt Q9BUH6 1-204)
